Measured values: the supplement of paper PMC12823440, “Inhibitors supercharge kinase turnover through native proteolytic circuits” (Nature, 2025)
Counter-ions that a name gives are not always drawn. The list shows a part of the results. Hit calls seldom repeat between salt and free forms of one compound.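 Kinases, fused to nanoluciferase, were expressed in K562 cells; luminescence was measured every 4 h from 2 to 18 h as percent of control (DMSO = 100%, positive control = 0%). A time point is decreased if signal falls significantly (2 sigma). Hits were called by the authors by a rule that is not shown; the count of time points alone does not decide it.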

The chains behind the UniProt entries cited, without tags or fusion partners. Where a name states a change or a piece, a line headed by the entry shows the natural chain unless it says otherwise.
UniProt P21860, whole entry: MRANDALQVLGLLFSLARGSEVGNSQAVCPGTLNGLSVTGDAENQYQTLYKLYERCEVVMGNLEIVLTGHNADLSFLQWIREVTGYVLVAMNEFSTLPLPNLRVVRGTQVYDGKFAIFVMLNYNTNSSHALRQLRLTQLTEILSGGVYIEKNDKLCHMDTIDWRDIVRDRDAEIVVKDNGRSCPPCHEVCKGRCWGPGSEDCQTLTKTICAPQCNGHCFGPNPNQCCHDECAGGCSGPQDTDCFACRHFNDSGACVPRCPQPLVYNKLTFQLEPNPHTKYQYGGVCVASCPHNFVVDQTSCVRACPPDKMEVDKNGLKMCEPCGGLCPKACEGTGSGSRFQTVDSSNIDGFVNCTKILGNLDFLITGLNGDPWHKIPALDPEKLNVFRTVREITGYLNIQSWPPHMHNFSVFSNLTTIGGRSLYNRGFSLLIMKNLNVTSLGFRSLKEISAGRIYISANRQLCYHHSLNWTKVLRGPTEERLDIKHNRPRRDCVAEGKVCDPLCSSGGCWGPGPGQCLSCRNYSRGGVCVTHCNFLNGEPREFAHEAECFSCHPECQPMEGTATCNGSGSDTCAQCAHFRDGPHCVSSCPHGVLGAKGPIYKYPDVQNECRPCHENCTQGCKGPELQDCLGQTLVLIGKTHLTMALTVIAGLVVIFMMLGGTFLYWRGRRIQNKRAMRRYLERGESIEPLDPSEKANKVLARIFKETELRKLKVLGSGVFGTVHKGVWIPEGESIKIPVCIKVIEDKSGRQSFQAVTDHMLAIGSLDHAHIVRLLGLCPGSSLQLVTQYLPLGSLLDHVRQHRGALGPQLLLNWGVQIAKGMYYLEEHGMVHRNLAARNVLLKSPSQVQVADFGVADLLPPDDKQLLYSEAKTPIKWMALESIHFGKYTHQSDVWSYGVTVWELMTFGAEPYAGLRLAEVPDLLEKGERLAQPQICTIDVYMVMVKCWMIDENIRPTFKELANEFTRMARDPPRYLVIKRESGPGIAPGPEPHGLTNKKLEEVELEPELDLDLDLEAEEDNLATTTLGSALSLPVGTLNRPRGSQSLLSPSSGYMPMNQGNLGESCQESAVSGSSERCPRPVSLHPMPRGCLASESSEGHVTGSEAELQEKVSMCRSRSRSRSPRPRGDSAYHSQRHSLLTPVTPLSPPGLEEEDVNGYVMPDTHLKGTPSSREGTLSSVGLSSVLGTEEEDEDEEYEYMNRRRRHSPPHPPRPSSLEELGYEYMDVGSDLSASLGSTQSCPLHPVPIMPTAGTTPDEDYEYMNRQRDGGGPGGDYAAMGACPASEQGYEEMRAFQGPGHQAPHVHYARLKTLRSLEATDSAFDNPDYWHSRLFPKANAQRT
UniProt O75460: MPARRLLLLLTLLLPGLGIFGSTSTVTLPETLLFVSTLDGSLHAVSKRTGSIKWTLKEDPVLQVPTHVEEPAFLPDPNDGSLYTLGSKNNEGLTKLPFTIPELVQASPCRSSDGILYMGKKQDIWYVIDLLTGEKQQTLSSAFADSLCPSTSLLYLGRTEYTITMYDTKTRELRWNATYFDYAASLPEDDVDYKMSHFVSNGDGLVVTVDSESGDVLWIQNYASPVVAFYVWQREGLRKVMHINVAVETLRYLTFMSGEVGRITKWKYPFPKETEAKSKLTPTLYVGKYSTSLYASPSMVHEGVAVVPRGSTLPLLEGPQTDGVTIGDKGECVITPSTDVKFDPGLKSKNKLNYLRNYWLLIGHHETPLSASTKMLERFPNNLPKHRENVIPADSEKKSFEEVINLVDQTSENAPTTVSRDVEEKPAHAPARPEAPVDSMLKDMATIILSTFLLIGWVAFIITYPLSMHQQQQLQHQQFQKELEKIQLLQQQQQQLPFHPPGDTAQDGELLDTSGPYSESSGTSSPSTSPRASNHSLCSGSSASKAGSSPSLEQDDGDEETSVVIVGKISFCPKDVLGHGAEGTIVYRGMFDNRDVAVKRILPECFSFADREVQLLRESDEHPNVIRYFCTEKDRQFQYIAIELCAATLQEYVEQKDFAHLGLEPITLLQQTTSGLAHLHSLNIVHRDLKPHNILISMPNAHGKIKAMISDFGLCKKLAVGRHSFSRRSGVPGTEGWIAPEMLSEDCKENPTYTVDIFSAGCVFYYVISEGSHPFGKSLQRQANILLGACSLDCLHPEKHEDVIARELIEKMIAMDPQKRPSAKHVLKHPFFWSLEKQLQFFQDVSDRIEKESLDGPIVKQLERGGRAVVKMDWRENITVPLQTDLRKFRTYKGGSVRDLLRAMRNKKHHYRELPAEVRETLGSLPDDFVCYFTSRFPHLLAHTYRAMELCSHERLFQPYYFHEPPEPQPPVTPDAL
UniProt P11362, whole entry, looked up: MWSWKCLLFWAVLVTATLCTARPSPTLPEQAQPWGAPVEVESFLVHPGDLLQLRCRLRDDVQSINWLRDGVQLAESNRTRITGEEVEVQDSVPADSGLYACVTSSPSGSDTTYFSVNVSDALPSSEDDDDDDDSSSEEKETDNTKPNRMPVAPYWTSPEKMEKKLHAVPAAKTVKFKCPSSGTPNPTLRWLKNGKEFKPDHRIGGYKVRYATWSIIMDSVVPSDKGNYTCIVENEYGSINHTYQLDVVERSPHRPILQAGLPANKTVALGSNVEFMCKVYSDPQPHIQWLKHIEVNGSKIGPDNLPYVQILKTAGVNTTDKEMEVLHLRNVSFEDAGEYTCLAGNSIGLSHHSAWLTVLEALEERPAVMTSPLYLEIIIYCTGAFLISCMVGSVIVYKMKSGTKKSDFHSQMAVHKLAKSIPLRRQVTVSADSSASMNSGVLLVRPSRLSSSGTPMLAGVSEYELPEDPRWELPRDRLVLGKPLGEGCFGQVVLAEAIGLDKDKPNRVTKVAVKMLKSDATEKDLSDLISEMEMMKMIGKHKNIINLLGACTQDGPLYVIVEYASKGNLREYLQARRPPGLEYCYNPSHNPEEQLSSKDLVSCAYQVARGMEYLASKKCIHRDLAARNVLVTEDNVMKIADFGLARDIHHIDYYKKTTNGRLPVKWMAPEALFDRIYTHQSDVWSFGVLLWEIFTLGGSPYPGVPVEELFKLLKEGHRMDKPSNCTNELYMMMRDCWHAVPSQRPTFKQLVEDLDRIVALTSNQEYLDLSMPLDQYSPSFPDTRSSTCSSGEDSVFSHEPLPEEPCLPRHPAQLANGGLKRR
UniProt P21802, whole entry, looked up: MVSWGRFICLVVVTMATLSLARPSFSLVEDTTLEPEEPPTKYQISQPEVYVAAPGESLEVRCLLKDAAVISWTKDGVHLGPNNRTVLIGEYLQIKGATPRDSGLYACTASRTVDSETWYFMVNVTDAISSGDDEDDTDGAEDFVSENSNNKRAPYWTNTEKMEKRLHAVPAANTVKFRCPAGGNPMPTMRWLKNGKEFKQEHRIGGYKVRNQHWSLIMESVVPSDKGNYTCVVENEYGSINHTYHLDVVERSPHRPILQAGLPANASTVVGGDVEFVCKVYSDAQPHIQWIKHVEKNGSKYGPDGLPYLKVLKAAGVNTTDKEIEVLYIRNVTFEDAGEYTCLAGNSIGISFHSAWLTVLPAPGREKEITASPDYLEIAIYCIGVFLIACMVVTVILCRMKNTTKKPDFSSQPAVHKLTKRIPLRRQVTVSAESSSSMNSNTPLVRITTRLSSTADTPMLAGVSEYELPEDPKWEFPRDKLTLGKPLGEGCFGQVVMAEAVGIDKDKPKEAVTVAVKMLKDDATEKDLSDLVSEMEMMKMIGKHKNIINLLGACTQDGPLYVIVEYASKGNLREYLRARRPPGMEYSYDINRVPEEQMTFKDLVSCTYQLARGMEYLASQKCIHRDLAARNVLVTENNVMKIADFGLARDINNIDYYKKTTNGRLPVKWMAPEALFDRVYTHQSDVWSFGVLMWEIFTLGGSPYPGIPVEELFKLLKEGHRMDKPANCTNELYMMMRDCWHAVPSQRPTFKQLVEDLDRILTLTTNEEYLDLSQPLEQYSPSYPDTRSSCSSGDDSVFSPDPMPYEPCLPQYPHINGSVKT
UniProt P22607, whole entry, looked up: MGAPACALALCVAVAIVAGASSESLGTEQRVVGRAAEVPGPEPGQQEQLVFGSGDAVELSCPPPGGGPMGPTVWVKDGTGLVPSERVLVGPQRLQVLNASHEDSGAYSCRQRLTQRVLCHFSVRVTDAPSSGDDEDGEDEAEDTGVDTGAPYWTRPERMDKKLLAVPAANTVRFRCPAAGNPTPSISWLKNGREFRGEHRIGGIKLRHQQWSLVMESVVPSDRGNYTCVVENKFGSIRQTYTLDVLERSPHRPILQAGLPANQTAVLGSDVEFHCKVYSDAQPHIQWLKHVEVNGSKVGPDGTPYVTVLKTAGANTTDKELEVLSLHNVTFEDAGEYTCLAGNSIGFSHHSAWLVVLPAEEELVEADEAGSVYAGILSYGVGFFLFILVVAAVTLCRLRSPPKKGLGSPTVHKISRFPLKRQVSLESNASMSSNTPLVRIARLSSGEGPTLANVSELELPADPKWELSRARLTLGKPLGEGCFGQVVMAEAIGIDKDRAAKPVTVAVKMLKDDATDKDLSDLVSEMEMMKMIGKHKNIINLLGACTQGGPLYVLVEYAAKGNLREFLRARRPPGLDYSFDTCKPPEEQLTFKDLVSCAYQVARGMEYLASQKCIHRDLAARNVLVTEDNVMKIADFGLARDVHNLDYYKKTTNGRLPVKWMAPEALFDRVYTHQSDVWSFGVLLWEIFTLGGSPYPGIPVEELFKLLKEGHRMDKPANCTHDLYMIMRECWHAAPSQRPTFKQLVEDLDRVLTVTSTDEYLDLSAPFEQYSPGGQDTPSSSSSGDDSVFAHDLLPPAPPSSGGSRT
UniProt P36888, whole entry: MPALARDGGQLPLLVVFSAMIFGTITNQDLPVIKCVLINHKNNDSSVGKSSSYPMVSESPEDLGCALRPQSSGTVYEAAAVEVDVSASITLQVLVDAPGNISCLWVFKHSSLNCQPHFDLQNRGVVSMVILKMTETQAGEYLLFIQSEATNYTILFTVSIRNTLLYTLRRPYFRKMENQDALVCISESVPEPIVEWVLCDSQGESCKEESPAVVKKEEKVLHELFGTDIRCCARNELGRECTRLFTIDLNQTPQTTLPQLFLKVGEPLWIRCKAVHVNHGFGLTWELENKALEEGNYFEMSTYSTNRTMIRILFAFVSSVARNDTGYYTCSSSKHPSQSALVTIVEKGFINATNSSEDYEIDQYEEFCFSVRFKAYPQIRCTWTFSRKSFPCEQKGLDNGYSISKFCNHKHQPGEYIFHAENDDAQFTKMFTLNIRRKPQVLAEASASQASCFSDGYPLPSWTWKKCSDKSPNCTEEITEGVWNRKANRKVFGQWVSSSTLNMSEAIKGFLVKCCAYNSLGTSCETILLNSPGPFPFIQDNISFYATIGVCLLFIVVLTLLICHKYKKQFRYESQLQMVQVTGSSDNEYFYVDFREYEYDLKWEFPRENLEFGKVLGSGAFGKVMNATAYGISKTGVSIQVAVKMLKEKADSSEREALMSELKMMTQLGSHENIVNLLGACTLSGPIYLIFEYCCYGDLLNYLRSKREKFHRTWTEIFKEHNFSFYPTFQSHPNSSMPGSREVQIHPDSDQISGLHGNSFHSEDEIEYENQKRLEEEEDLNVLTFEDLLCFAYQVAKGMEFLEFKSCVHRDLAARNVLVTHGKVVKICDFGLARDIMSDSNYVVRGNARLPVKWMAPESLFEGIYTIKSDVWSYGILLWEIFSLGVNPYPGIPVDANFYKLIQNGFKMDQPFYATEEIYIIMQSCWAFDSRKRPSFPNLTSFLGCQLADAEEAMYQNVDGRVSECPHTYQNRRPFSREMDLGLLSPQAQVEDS
UniProt Q9Y616: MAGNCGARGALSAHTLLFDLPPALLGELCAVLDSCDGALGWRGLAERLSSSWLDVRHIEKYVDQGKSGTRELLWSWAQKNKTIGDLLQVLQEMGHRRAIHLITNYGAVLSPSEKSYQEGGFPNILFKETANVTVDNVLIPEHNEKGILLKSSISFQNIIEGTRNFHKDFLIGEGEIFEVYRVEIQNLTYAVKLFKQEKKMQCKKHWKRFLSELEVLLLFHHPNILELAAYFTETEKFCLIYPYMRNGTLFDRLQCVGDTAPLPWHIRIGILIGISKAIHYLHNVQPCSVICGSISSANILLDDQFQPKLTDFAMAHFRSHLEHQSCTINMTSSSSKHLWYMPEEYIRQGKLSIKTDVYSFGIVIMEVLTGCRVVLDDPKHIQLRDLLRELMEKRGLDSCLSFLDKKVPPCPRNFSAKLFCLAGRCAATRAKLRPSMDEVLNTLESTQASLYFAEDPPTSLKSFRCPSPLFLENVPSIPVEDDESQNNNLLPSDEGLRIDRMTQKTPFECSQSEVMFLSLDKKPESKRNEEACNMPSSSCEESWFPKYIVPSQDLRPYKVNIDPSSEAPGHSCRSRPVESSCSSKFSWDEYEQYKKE

Experiments:
Experiment in all cases: number of time points (of 5) at which kinase-Nluc abundance scored as decreased, DMSO-normalised (count); higher = more persistent destabilization
Conditions in all cases: K562; 2-18 h
[1] = molecular target: EGFR_L861Q (UniProt P00533)
[2] = molecular target: EGFR_T790M (UniProt P00533)
[3] = molecular target: EPHA2 (UniProt P29317)
[4] = molecular target: ERBB3 (UniProt P21860)
[5] = molecular target: ERBB4_R711C (clone: ERBB4_mut) (UniProt Q15303)
[6] = molecular target: ERN1 (UniProt O75460)
[7] = molecular target: FGFR1 (UniProt P11362)
[8] = molecular target: FGFR2 (UniProt P21802)
[9] = molecular target: FGFR3 (UniProt P22607)
[10] = molecular target: FGR (UniProt P09769)
[11] = molecular target: FLT3 (UniProt P36888)
[12] = molecular target: FYN (UniProt P06241)
[13] = molecular target: GSK3A (UniProt P49840)
[14] = molecular target: HER2 (UniProt P04626)
[15] = molecular target: INSRR (UniProt P14616)
[16] = molecular target: IRAK3 (UniProt Q9Y616)
[17] = molecular target: JAK1 (UniProt P23458)
[18] = molecular target: LCK (UniProt P06239)
[19] = molecular target: LIMK1 (UniProt P53667)
[20] = molecular target: LIMK2 (UniProt P53671)

Measured: number of time points

COc1cc(S(C)(=O)=O)ccc1Nc1nc2ccc(-c3ccc(NC(=O)[C@H](C)c4ccc(F)cc4)cc3)cn2n1 [Empesertib] (10 µM)
0: [1] | [2] | [3] | [4] | [5] | [6] | [7] | [8] | [9] | [10] | [11] | [12] | [13] | [14] | [15] | [16] | [17] | [18] | [19] | [20]

Cc1cc(Nc2cc(Cl)nc(Oc3ccc([N+](=O)[O-])cc3)n2)n[nH]1 [Autophinib] (2.5 µM)
0: [1] | [2] | [3] | [4] | [5] | [6] | [7] | [8] | [9] | [10] | [11] | [12] | [13] | [14] | [15] | [16] | [17] | [18] | [19] | [20]

CN(C)CCN(Cc1ccc(Cl)cc1)c1ccccn1 [Chloropyramine hydrochloride] (10 µM)
0: [1] | [2] | [3] | [4] | [5] | [6] | [7] | [8] | [9] | [10] | [11] | [12] | [13] | [14] | [15] | [16] | [17] | [18] | [19] | [20]

O=C1Nc2nc(-c3c(O)cccc3OCC3CC3)cc([C@@H]3CCCNC3)c2CO1 [Bay 65-1942 (hydrochloride)] (10 µM)
0: [2] | [3] | [4] | [5] | [7] | [8] | [9] | [10] | [13] | [14] | [15] | [16] | [18] | [20]
2: [1] | [6] | [19]
1: [11]
3: [12] | [17]

Cn1cc(-c2ccc(CNc3cc(-c4cnc5cc(OCCCN6CCCC6)ccn45)ncn3)cc2)cn1 (10 µM)
0: [1] | [2] | [3] | [4] | [5] | [6] | [7] | [8] | [9] | [10] | [11] | [12] | [13] | [14] | [15] | [16] | [17] | [18] | [19] | [20]

C=C(CCC=C(C)C)[C@H]1CC[C@]2(C)[C@@H]1[C@H](O)C[C@@H]1[C@@]3(C)CC[C@H](O[C@@H]4O[C@H](CO)[C@@H](O)[C@H](O)[C@H]4O[C@@H]4O[C@H](CO)[C@@H](O)[C@H](O)[C@H]4O)C(C)(C)[C@@H]3CC[C@]12C [Ginsenoside Rk1] (10 µM)
0: [1] | [2] | [3] | [4] | [5] | [6] | [7] | [8] | [9] | [10] | [11] | [12] | [13] | [14] | [15] | [16] | [17] | [18] | [19] | [20]
